Measurements reported in paper doi:10.1101/2023.05.11.540447.
Results are given in words; binding and its absence hold for the method and conditions named.

Target: Xenopus laevis HAS isoform 1 (hyaluronan synthase 1) (Xenopus laevis) (UniProt P13563)
Test: SEC + cryo-EM structure

binding: no binding
B1: Xenopus laevis HAS isoform 1 (hyaluronan synthase 1) (enzyme, UniProt P13563 1-588)
chain: MKEKAAETMEIPEGIPKDLEPKHPTLWRIIYYSFGVVLLATITAAYVAEFQVLKHEAILFSLGLYGLAMLLHLMMQSLFAFLEIRRVNKSELPCSFKKTVALTIAGYQENPEYLIKCLESCKYVKYPKDKLKIILVIDGNTEDDAYMMEMFKDVFHGEDVGTYVWKGNYHTVKKPEETNKGSCPEVSKPLNEDEGINMVEELVRNKRCVCIMQQWGGKREVMYTAFQAIGTSVDYVQVCDSDTKLDELATVEMVKVLESNDMYGAVGGDVRILNPYDSFISFMSSLRYWMAFNVERACQSYFDCVSCISGPLGMYRNNILQVFLEAWYRQKFLGTYCTLGDDRHLTNRVLSMGYRTKYTHKSRAFSETPSLYLRWLNQQTRWTKSYFREWLYNAQWWHKHHIWMTYESVVSFIFPFFITATVIRLIYAGTIWNVVWLLLCIQIMSLFKSIYACWLRGNFIMLLMSLYSMLYMTGLLPSKYFALLTLNKTGWGTSGRKKIVGNYMPILPLSIWAAVLCGGVGYSIYMDCQNDWSTPEKQKEMYHLLYGCVGYVMYWVIMAVMYWVWVKRCCRKRSQTVTLVHDIPDMCV
